This passage reports binding results from patent US20140356285A1, “COMPOSITIONS AND METHODS RELATED TO TISSUE TARGETING” (THE BOARD OF REGENTS OF THE UNIVERSITY OF TEXAS SYSTEM, priority 2011, published 2014).

No constants are given. Whether binding was seen depends on the method and setting. Some entries that bind do so weakly or less than the wild type. For some of these results: Sequences can lack the tags named with a protein.

First the molecules themselves.
T1: GST-prohibitin (UniProt P35232)
T1 sequence (looked up): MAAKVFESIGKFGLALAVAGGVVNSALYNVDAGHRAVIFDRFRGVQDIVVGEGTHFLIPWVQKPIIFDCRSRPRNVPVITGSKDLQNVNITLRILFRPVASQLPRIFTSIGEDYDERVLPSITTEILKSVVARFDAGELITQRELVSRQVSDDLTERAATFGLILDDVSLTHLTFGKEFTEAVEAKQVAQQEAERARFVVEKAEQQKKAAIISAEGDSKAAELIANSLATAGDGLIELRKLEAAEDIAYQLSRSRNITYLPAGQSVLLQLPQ

T2: human leukocyte proteinase-3 (PR-3) (human, UniProt P24158 28-248)
T2 construct: In the ELISAs the PR-3 was bought (Sigma); also called active PR-3; endogenous PR-3
T2 chain: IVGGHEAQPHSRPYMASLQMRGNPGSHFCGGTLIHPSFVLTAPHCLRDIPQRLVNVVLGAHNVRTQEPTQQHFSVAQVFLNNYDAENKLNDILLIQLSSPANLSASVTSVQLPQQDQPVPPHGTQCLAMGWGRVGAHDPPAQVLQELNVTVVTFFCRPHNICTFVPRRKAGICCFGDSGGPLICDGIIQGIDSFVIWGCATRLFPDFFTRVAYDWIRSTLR

One assay concerns the target T1, GST-prohibitin. As to the kind of experiment: phage binding assay on immobilized protein.
On to CKGGRAKDC […-displaying phage], for which the binding result is listed as “binds”.

The target in the next assay is T1, GST-prohibitin. As to the kind of experiment: phage binding to immobilized GST-prohibitin; member of the ANXA2-like subset (n=14).
As to ASGRRES [ASGRRES (SEQ ID NO:14)], the binding entry is given as “binds”.

In the case of GGRAHGI [GGRAHGI (SEQ ID NO:24)], the binding result is “binds”.

Regarding GRRSRDE [GRRSRDE (SEQ ID NO:16)], the binding entry was “binds”.

For the molecule HQKLLVA [HOKLLVA (SEQ ID NO:15)], the binding result is recorded as “binds”.

For SPAWGVR [SPAWGVR (SEQ ID NO:21)], the binding entry was “binds”.

On to NLSGRRA [NLSGRRA (SEQ ID NO:22)], for which the binding result is reported as “binds”.

With AGSGSVL [AGSGSVL (SEQ ID NO:18)], the binding result is recorded as “binds”.

On to GLVALAR [GLVALAR (SEQ ID NO:17)], for which the binding result is recorded as “binds”.

Another assay addresses T2, human leukocyte proteinase-3 (PR-3). As to the kind of experiment: affinity capture on monoavidin beads with biotinylated peptides (equimolar admixture of … and …), from a membrane extract of human bone marrow cells.
For the molecule CPGGGLVHC (cyclized; N-terminal biotin) [synthetic … peptide], the binding result is given as “binds”.
